Results on five molecules are retold here after patent publication US20250269025A1 (AVENCELL THERAPEUTICS, published 2025).

These are yes or no findings as the source states them, for the method shown. Some results given as binding are weak or reduced against the parent protein; the word gives no strength. Tags and fused reporters may be left off the sequences shown. No end group written: not given here.

First the molecules themselves.
B1: targeting module according to SEQ ID No. 4 (bispecific antibody)
chain: GQVQLVQSGAEVKKPGASVKMSCKASGYTFTDYYMKWVKQAPGQGLEWIGDIIPSNGATFYNQKFQGRATLTVDTSTSTAYMELSSLRSEDTAVYYCTRSHLLRASWFAYWGQGTLVTVSSASGGGGSGGGGSGGGGSDIVMTQSPDSLAVSLGERATINCKSSQSLLNSGNQKNYLTWYLQKPGQPPKLLIYWASTRESGVPDRFSGSGSGTDFTLTISSVQAEDVAVYYCQNDYSYPYTFGGGTKLEIKAAARGDIVMTQSPDSLAVSLGERVTMNCKSSQSLLNSRTPKNYLAWYQQKPGQSPKLLIYWASTRKSGVPDRFSGSGSGTDFTLTISSVQAEDVAVYYCKQSYNLLTFGGGTKLEIKGGGGSGGGGSGASAAGGGGSGGGGSQVQLVESGAEVVKPGASVKLSCKASGYAFTHYYIYWIKQAPGQGLEWIGGVNPSNGGTHFNEKFKSRATLTVDTSISTAYMELSRLRSDDTAVYYCTRSEYDYGLGFAYWGQGTLVTVSSGGGGSHHHHHHHH
notes: also called huCD123_2 + rs5B9-VLVH
B2: targeting module according to SEQ ID No. 3 (bispecific antibody)
chain: GQVQLVQSGAEVKKPGSSVKVSCKASGYTFTDYYIHWVRQAPGQGLEWMGDIIPSNGATFYNQRFKGRVTITADESTSTAYMELSSLRSEDTAVYYCTRSHLLRASWFAYWGQGTLVTVSSASGGGGSGGGGSGGGGSDIVMTQTPLSLSVTPGQPASISCRSSQSLLNSGNQKNYLTWYLQKPGQSPQLLIYWASTRFIGVPDRFSGSGSGTDFTLKISRVEAEDVGVYYCQNDYSYPYTFGQGTKLEIKAAARGDIVMTQSPDSLAVSLGERATINCKSSQSLLNSRTPKNYLAWYQQKPGQPPKLLIYWASTRKSGVPDRFSGSGSGTDFTLTISSLQAEDVAVYYCKQSYNLLTFGGGTKVEIKGGGGSGGGGSGASAAGGGGSGGGGSQVQLVQSGAEVKKPGASVKVSCKASGYTFTHYYIYWVRQAPGQGLEWMGGVNPSNGGTHFNEKFKSRVTMTRDTSISTAYMELSRLRSDDTAVYYCARSEYDYGLGFAYWGQGTLVTVSSGGGGSHHHHHHHH
notes: also called huCD123_1 + 5B9-VL-VH
B3: targeting module according to SEQ ID No. 2 (reference) (bispecific antibody)
chain: EVQLQQSGPELVKPGASVKMSCKASGYTFTDYYMKWVKQSHGKSLEWIGDIIPSNGATFYNQKFKGKATLTVDRSSSTAYMHLNSLTSEDSAVYYCTRSHLLRASWFAYWGQGTLVTVSAASGGGGSGGGGSGGGGSDFVMTQSPSSLTVTAGEKVTMSCKSSQSLLNSGNQKNYLTWYLQKPGQPPKLLIYWASTRESGVPDRFTGSGSGTDFTLTISSVQAEDLAVYYCQNDYSYPYTFGGGTKLEIKAAARGQVQLVQSGAEVKKPGASVKVSCKASGYTFTHYYIYWVRQAPGQGLEWMGGVNPSNGGTHFNEKFKSRVTMTRDTSISTAYMELSRLRSDDTAVYYCARSEYDYGLGFAYWGQGTLVTVSSGGGGSGGGGSGGGGSDIVMTQSPDSLAVSLGERATINCKSSQSLLNSRTPKNYLAWYQQKPGQPPKLLIYWASTRKSGVPDRFSGSGSGTDFTLTISSLQAEDVAVYYCKQSYNLLTFGGGTKVEIKGPEQKLISEEDLNSAVDHHHHHH
notes: also called muCD123 + 5B9-VH-VL
B4: targeting module according to SEQ ID No. 6 (bispecific antibody)
chain: EVQLQQSGPELVKPGASVKMSCKASGYTFTDYYMKWVKQSHGKSLEWIGDIIPSNGATFYNQKFKGKATLTVDRSSSTAYMHLNSLTSEDSAVYYCTRSHLLRASWFAYWGQGTLVTVSAASGGGGSGGGGSGGGGSDFVMTQSPSSLTVTAGEKVTMSCKSSQSLLNSGNQKNYLTWYLQKPGQPPKLLIYWASTRESGVPDRFTGSGSGTDFTLTISSVQAEDLAVYYCQNDYSYPYTFGGGTKLEIKAAARGDIVMTQSPDSLAVSLGERVTMNCKSSQSLLNSRTPKNYLAWYQQKPGQSPKLLIYWASTRKSGVPDRFSGSGSGTDFTLTISSVQAEDVAVYYCKQSYNLLTFGGGTKLEIKGGGGSGGGGSGASAAGGGGSGGGGSQVQLVESGAEVVKPGASVKLSCKASGYAFTHYYIYWIKQAPGQGLEWIGGVNPSNGGTHFNEKFKSRATLTVDTSISTAYMELSRLRSDDTAVYYCTRSEYDYGLGFAYWGQGTLVTVSSGGGGSHHHHHHHH
notes: also called muCD123 + rs5B9-VL-VH
B5: targeting module according to SEQ ID No. 5 (bispecific antibody)
chain: EVQLQQSGPELVKPGASVKMSCKASGYTFTDYYMKWVKQSHGKSLEWIGDIIPSNGATFYNQKFKGKATLTVDRSSSTAYMHLNSLTSEDSAVYYCTRSHLLRASWFAYWGQGTLVTVSAASGGGGSGGGGSGGGGSDFVMTQSPSSLTVTAGEKVTMSCKSSQSLLNSGNQKNYLTWYLQKPGQPPKLLIYWASTRESGVPDRFTGSGSGTDFTLTISSVQAEDLAVYYCQNDYSYPYTFGGGTKLEIKAAARGDIVMTQSPDSLAVSLGERATINCKSSQSLLNSRTPKNYLAWYQQKPGQPPKLLIYWASTRKSGVPDRFSGSGSGTDFTLTISSLQAEDVAVYYCKQSYNLLTFGGGTKVEIKGGGGSGGGGSGASAAGGGGSGGGGSQVQLVQSGAEVKKPGASVKVSCKASGYTFTHYYIYWVRQAPGQGLEWMGGVNPSNGGTHFNEKFKSRVTMTRDTSISTAYMELSRLRSDDTAVYYCARSEYDYGLGFAYWGQGTLVTVSSGGGGSHHHHHHHH
notes: also called R-TM123; muCD123 + 5B9-VL-VH

One experiment concerns the target T1, La epitope 5B9 (SEQ ID No. 28) fused to human Fc domain (human).
T1 sequence: KPLPEVTDEY
The experiment is described as follows: SPR, La epitope 5B9-human Fc on CM5 chip. Background: SPR reads the build-up and loss of mass on a sensor chip optically.
On to B1, for which the binding result was “binds”.

As to B2, the binding result is “binds”.

With B3, the binding entry is reported as “binds”.

Regarding B4, the binding entry is given as “binds”.

With B5, the binding entry is “binds”.

A further experiment shares this target. Briefly: SPR (Biacore X100), La epitope 5B9-Fc coupled to CM5 chip, targeting module 2.47 to 200 nM.
B1: the binding result is “binds”.

As for B2, the binding result is “binds”.

On to B3, for which the binding result is given as “binds”.

With B4, the binding entry is “binds”.

Regarding B5, the binding entry was “binds”.
